Experimental findings from PubChem BioAssay AID1508600 (Functional Genomics Laboratory (NCATS/FGL), 2020) are described below.

The campaign covered roughly 53,000 sequences. About 3,700 (7%) were called active.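 The calls were made as follows: active = gene knockdowns whose robust z-score for IL-1 alpha signal is at least 2 or at most -2, so actives lie on both sides; inactive = the rest.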 This is one part of the list.

This assay is described as follows: Components of the Cytosolic LPS Sensing Pathway: Gene Identification via Genome-wide siRNA Screen.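 Also: robust z of the log signal after scaling to non-targeting control siRNA wells of the plate.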 The conditions noted are these: RAW264.7 macrophages, IL-1a HTRF, actives lie on both sides, screened at 100 nM (by protocol), cells primed 5 h with Pam3CSK4 first. The essentials:
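RAW264.7 mouse macrophages reverse-transfected with single siRNAs (100 nM final) for 48h, primed with Pam3CSK4 for 5 hours, then transfected with LipidA for 24 hour. Supernatant IL-1a read by HTRF; values normalized to negative-control median, log-transformed robust z-scores.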
In general terms: In TR-FRET formats the signal depends on donor and acceptor labels being close together.
As for GGAAAUCUCUGGGAUAAUUTT against Hsd11b1, the z-score was inactive: 0.463. On to GGAGACAAGCUAAUUGAGATT against Ppp1r8, for which the z-score is inactive: -0.584. Next, CCUCAUCAAUUGGUUAGAATT against Brip1: inactive: -0.469. For ACACUCCUAAAUUGAUCAUTT against Olfr1258, the z-score is inactive: -0.282.

CGGCAAAUUCGUGAAAAGGTT against Olfr575: the z-score is inactive: 0.118. Next, GCUCACUUGAUUCUGGUAATT against Ifnz: inactive: 0.416. The same measure for GGUCUUUUUAUCCCAUUGUTT against Olfr1298: inactive: -1.93; for GGCAACUCUCGAAUCUUUUTT against Abhd14a: inactive: -0.133. The same measure for GGACUCUGUCCUUUUCAAATT against Wdr66: inactive: -0.599; for GGGAAGAUCACAUUUUCGCTT against Ephx2: inactive: 0.0157. Take GGUAUUAUCUAACUCUAGCTT against Slc25a32: the z-score is inactive: 1.59. In the case of CCAGCGAACAAAAUGAGGATT against Dusp23, the z-score was inactive: 0.126. With GGGCAUGCCCAAGAGAAUATT against Tcp1, the z-score was inactive: 0.349. For GGAAAUCUUCAGAAAAAGATT against Gucy1a1, the z-score is inactive: -0.434. Next, GCUGACACAUUUUCACAUGTT against Itgax: inactive: 1.19; GACUACAUUUAUAGCCCAATT against Olfr1262: inactive: -0.166. CGCUGCUAAGAAUCAUCUATT against Ednrb: the z-score is inactive: 0.287. Next, GGACAUCUGGCUAAGGAACTT against Duxbl1: inactive: -1.05; GGGACUUGCCUUUCAUUCUTT against Acads: inactive: 0.921; GGCUUUUAUUGUCCUGAAUTT against Acsm3: inactive: -0.299. Next, CCAUUAAUAUCUUCUCUUCTT against Olfr1079: inactive: 0.735; CGCAUCCAAGCUGAUAAAGTT against Stoml3: inactive: -0.406. Next, GGAAAAGUUAGCGUGUAAUTT against Prkcz: inactive: -1.66. As for GGCUGGCUGGAAAAAAGGUTT against Gzf1, the z-score is inactive: -0.708. The same measure for GCCUGGUUACAGCAUUAACTT against Rimkla: inactive: -1.75. Consider GGACAGACAGGUCUAGUUATT against Brsk1, for which the z-score was inactive: 0.976.

In the case of CCUUUUAUGCUAGUACUGATT against Olfr1504, the z-score is inactive: -1.53.

In the case of GCUGAGAAUGUGGUAACAGTT against Dnaaf6, the z-score was inactive: -0.847. Regarding GCCCUCAGGUGGUUCUUAATT against Heatr3, the z-score was inactive: 0.443. Next, GCUAGACCAACCUGAUUGGTT against Necap1: inactive: -1.15; GGUUCCUGACCACUGGUACTT against Gstt1: inactive: -0.493; GGCUUGUCAGUGCAUCUCATT against Kif9: inactive: -0.683. In the case of GCGUGACCAUUAUUUCCUGTT against Vrtn, the z-score is inactive: 0.983.

CCACAAUAGCUCGAACCAUTT against Endov: the z-score was inactive: -0.919. Next, GCAAUAAUCGUUCUCAAAATT against Prkab1: inactive: 1.5. Next, CCUGCUUGUCUCAAUAGUUTT against Krtap3-2: inactive: -0.518. The same measure for GGAGAAAGUGGACCUUUUGTT against Etfb: inactive: -1.26; for GCCUUAAUUAAACACGGCCTT against Rbck1: inactive: -0.492. For GCUCUUAUACGCCUAGGUATT against Upk1a, the z-score is inactive: -0.166. Next, GGCCAUCUCAUUUUCAGGGTT against Olfr749: inactive: 0.286. Regarding GGCACCAGUAUCAGCCUUUTT against Mrpl15, the z-score is inactive: 0.637. Next, “GGUGCAUAAAUAAAUUCCUTT against B230317F23Rik”: inactive: 0.586; GGGCAACAUGUCACUGAUCTT against Pgbd5: inactive: -0.0682. The same measure for GGCUUACGUGGUGUGCACUTT against Galr1: inactive: 0.345; for GGAGAUUCACCCUGAGUGUTT against Gtf3c1: inactive: -1.87. Next, GGAAGUUCCACGUUAUUGUTT against Eif2b2: inactive: -1.3; GCUGGUCAAGUCCUUCUAGTT against Mrpl28: inactive: -0.694; GGGAUUCUUACUCAGACGCTT against Bmf: inactive: 0.297. As to CGCUUGUCUAGGGUACAAATT against Daam1, the z-score was inactive: 1.07. The same measure for CCGCUGCAUAGCAUGUACATT against Dusp23: inactive: 0.901.

Regarding “GGAACCUUCACGAUAACAGTT against 2810407A14Rik”, the z-score is inactive: 0.682. The same measure for CCUGGAGAAUUCGAAAAAATT against Grm8: inactive: 0.606; for GGAAAUUAUCAAAGUGACATT against Camk2a: inactive: -1.65.

Take CCAGCCAUCUGCCAGUAUATT against Gm5148: the z-score is inactive: 0.253. “GGACAAUUACAUCCAGCCUTT against 2610528J11Rik”: the z-score was active: -2.11.

As for GAUCAACCUGAGCUCCAGUTT against Olfr25, the z-score is active: 2. With GCACUUAUGAUGUCCUAUUTT against Sema4b, the z-score is inactive: 0.606. Next, GGAAAAUGAAAUCAUCGAGTT against Fuca1: inactive: -0.987; GGUGCUGAUGAUGAUUAAATT against Cuta: inactive: 0.84. The same measure for GCACAACAUGGAUUGGAAATT against Dhps: inactive: -0.0955; for CCUUUCACACGUCAUCAGUTT against Trpc2: inactive: -0.972.

With GGCUCACCUGAUACACUUUTT against Ramp2, the z-score was inactive: 0.707. Consider GGCAUCCUUGGUGUUUGUATT against Ncapg2, for which the z-score was inactive: 0.221. Next, GGUGGGUACUGAAAGCCCATT against Ubqlnl: inactive: 0.666; GGACUUCAGCGAAUUUGACTT against Ube4a: inactive: -1.09; GCAACUGAAUUCCAGUUUUTT against Ugt1a2: inactive: -0.0905. Consider CCGUAUUAUUGGAAGCGGCTT against Ldhal6b, for which the z-score is inactive: 1.15. In the case of GCUAAAUCAAGGAGACUAUTT against Art4, the z-score is inactive: 0.817. Turning to GGCUAACCGAAGCCAUCCUTT against Tceal9, the z-score is inactive: 0.969.

On to GGAUAGUGUUUCACUGUUATT against Igfals, for which the z-score is inactive: -0.889. GGAGAUGGCCGACUUCUAUTT against Coa8: the z-score is inactive: 0.934. The same measure for GGGAAGUUCAGUUCAAUACTT against Hps4: inactive: 1.11; for GGAGAACACAAGAUUUAAATT against Ablim3: inactive: 0.532; for GGCGAAUGUUUACGAGAACTT against Sh2d1b2: inactive: 0.327.

Regarding UGUAUAGCUAUGACCCUGCTT against AI413582, the z-score is inactive: -1.8. The same measure for GGCAUUACCAAUUUUUGUATT against Tada2a: inactive: 0.56; for GAGCAUAGAAACCAUGCACTT against Acot2: inactive: -0.621; for GGAUGUACAAGAAAAGUAUTT against Ccr3: inactive: 1.01. Next, CCGCAUGACACGACAUGUATT against Cd300e: inactive: 0.847; CCCAAGAUGGUUUUAAGUUTT against Met: inactive: 0.483. Next, GCCUGUCCACAUCACUGUATT against Tmem171: inactive: -0.16; GGAAAAUUUACACUGACCUTT against Gimap7: inactive: -0.377; “CCGUUCUGGCACAGAACAGTT against A830005F24Rik”: inactive: 1.41.

On to GGAGGCAAUUCAGAAGUGGTT against Ttc33, for which the z-score was inactive: -0.452. On to GGUGAAAAGUCCUGCCAAGTT against Nefh, for which the z-score was inactive: 0.408. For GCCAACGAGAUUUGUAACATT against Dr1, the z-score is inactive: -0.631.

With GGAGAUAUCCAUCAAUAGUTT against Nbr1, the z-score is inactive: 0.874. Consider GAGGGAAACUAUUCUAGACTT against H2al2a, for which the z-score was inactive: 1.64.

Turning to GCUUAUAAGAGUCUAUCUUTT against Stam, the z-score was inactive: -0.217. For the sequence GGAGAGGUCAGAUAGAAAUTT against Zbtb41, the z-score was active: -2.29. Next, GGAAAGUGAUUGUUGGAGCTT against Fpr-rs3: inactive: -1.19; GGAGAAAUCUCAAAGAUCUTT against Daw1: inactive: 0.867; GGCCUUCAGAAAGUCCUUGTT against Car2: inactive: -0.242.

GCUAUAAGAGAGCUAGACATT against Lrrc40: the z-score was inactive: -0.614. In the case of “CGCUCUCUCUACAAAGGAUTT against A230052G05Rik”, the z-score was inactive: 0.984.

Regarding GGAGCACAAAAAUCAGACATT against Ino80b, the z-score was inactive: -1.13. Regarding “GCAUGUGGCUAACUUCAAATT against 4933411G06Rik”, the z-score is inactive: 0.839. The same measure for GGGCAAAAAGUGCAUCCGGTT against Ccn2: inactive: 0.116. The same measure for GGCUCUUCCAACAGUUCUUTT against Grk1: active: 2.07; for GGUCUGUCUCCAGAUUGCUTT against Olfr56: inactive: -1.73. CGAACCAUUUCGUAAAGUUTT against Dclk2: the z-score was inactive: 0.595.

In the case of GCCACCUCAAAUAACCGUCTT against Lat, the z-score is inactive: 1.17. Next, GCUUUCAGCUAUUGGACCCTT against Kl: inactive: 0.0919. In the case of CCUUUUUGACAUUGUGAUUTT against Nt5dc1, the z-score was inactive: -0.896. As for GGGUUAACUUUUACUAUGGTT against Olfr570, the z-score is inactive: -0.537.

As for CCCUAAGAGUCACCAAAAUTT against Nos2, the z-score is active: -2.19.
